Laboratory results taken from patent US20140134176A1.
Results are given in words; binding and its absence hold for the method and conditions named. Some entries that bind do so weakly or less than the wild type.

Sequences of proteins named here, by UniProt entry; tags and fusion partners are left off. Residues count along the entry.
UniProt P31240, residues 82-190: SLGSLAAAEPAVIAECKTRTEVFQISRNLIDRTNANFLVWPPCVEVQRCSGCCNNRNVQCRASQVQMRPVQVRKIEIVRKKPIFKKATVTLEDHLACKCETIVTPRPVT
UniProt Q05028, residues 74-182: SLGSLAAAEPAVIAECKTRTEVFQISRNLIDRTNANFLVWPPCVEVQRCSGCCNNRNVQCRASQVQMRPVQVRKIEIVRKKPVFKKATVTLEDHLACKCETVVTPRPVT

How the values were obtained:
[1] = molecular target: human PDGF-AB (human) (UniProt P04085); assay: SPR (Biacore 3000)
[2] = molecular target: human PDGF-BB (human) (UniProt P01127); assay: SPR (Biacore 3000)
[3] = molecular target: mouse PDGF-BB (mouse) (UniProt P31240); assay: SPR (Biacore 3000)
[4] = molecular target: rat PDGF-BB (rat) (UniProt Q05028); assay: SPR (Biacore 3000)
[5] = molecular target: human PDGF-AB (human) (UniProt P04085); assay: SPR (Biacore 3000), MOR8457-16 captured on anti-human IgG on a CM5 chip, Hu-PDGF-AB at 0.5 and 1 nM, 2 min injection, 10 min dissociation
[6] = molecular target: rat PDGF-BB (rat) (UniProt Q05028); assay: SPR (Biacore 3000), MOR8457-16 captured on anti-human IgG on a CM5 chip, Rat-PDGF-BB at 0.5 and 1 nM, 2 min injection, 10 min dissociation
[7] = molecular target: human PDGF-BB (human) (UniProt P01127); assay: SPR (Biacore 3000), MOR8457-16 captured on anti-human IgG on a CM5 chip, Hu-PDGF-BB at 0.25, 0.5 and 1 nM, 2 min injection, 10 min dissociation
[8] = molecular target: mouse PDGF-BB (mouse) (UniProt P31240); assay: SPR (Biacore 3000), MOR8457-16 captured on anti-human IgG on a CM5 chip, Mu-PDGF-BB at 0.25, 0.5 and 1 nM, 2 min injection, 10 min dissociation
[9] = molecular target: human PDGF-AB (human) (UniProt P04085); assay: SPR (Biacore)
[10] = molecular target: human PDGF-BB (human) (UniProt P01127); assay: SPR (Biacore)
[11] = molecular target: human PDGF-AB (human) (UniProt P04085); assay: SPR (Biacore) sensorgrams
[12] = molecular target: human PDGF-BB (human) (UniProt P01127); assay: SPR (Biacore) sensorgrams
[13] = molecular target: mouse PDGF-BB (mouse) (UniProt P31240); assay: SPR (Biacore) sensorgrams
[14] = molecular target: rat PDGF-BB (rat) (UniProt Q05028); assay: SPR (Biacore) sensorgrams
[15] = molecular target: human PDGF-BB (human) (UniProt P01127); assay: SPR sequential binding, MOR8457-mIgG1 captured first
[16] = molecular target: human PDGF-BB (human) (UniProt P01127); assay: SPR sequential binding, MOR8457-mIgG1 captured via anti-mouse IgG
[17] = molecular target: human PDGF-BB (human) (UniProt P01127); assay: SPR (Biacore), MOR8457-mIgG1 captured on anti-mouse IgG on a CM5 chip, human PDGF-BB 1 nM injected for 6 min
[18] = molecular target: human PDGF-BB (human) (UniProt P01127); assay: SPR (Biacore), antibody captured on anti-mouse IgG on a CM5 chip, huBB injected at 0.25, 0.5 and 1 nM for 2 min, 10 min dissociation
[19] = molecular target: mouse PDGF-BB (mouse) (UniProt P31240); assay: SPR (Biacore), antibody captured on anti-mouse IgG on a CM5 chip, muBB injected at 0.25, 0.5 and 1 nM for 2 min, 10 min dissociation
[20] = molecular target: human PDGF-AB (human) (UniProt P04085); assay: SPR (Biacore), antibody captured on anti-mouse IgG on a CM5 chip, huAB injected at 0.25, 0.5 and 1 nM for 2 min, 10 min dissociation
[21] = molecular target: rat PDGF-BB (rat) (UniProt Q05028); assay: SPR (Biacore), antibody captured on anti-mouse IgG on a CM5 chip, ratBB injected at 0.25, 0.5 and 1 nM for 2 min, 10 min dissociation
[22] = molecular target: human PDGF-BB (human) (UniProt P01127); assay: SPR (Biacore) competition in solution: MOR8457-mIgG1 serially diluted, mixed with human PDGF-BB, 20 h at 2-8 C, mixture injected over PDGFRβ-hIgG1 captured on anti-human IgG; blocked partner PDGFRβ-hIgG1

Measured: binding

B1: MOR8457-16 (antibody, human IgG1, lambda, V domains shown)
VH: EVQLLQSGGGLVKPGGSLRLSCAASGFTFSSYAMSWVRQAPGKGLEWVSYISDDGSLKYYADSVKGRFTISRDNSKNTLYLQMNSLRAEDTAVYYCARHPYWYGGQLDLWGQGTLVTVSS
VL: SYELTQPPSVSVSPGQTASITCSGDSLGSYFVHWYQQKPGQSPVLVIYDDSKRPSGIPERFSGSNSGNTATLTISGTQAMDEADYYCSAFTHNSDVFGGGTKLTVLG
binds: [1] | [2] | [3] | [4] | [5] | [6] | [7] | [8]

B2: MOR8457-mIgG1 (antibody)
heavy: EVQLVESGGGLVQPGGSLRLSCAASGFTFSSYAMSWVRQAPGKGLEWVSYISDDGSLKYYADSVKGRFTISRDNSKNTLYLQMNSLRAEDTAVYYCARHPYWYGGQLDLWGQGTLVTVSSAKTTPPSVYPLAPGSAAQTNSVTLGCLVKGYFPEPVTVTWNSGSLSSGVHTFPAVLQSDLYTLSSSVTVPSSTWPSETVTCNVAHPASSTKVDKKIVPRDCGCKPCICTVPEVSSVFIFPPKPKDVLTITLTPKVTCVVVDISKDDPEVQFSWFVDDVEVHTAQTQPREEQFNSTFRSVSELPIMHQDWLNGKEFKCRVNSAAFPAPIEKTISKTKGRPKAPQVYTIPPPKEQMAKDKVSLTCMITDFFPEDITVEWQWNGQPAENYKNTQPIMDTDGSYFVYSKLNVQKSNWEAGNTFTCSVLHEGLHNHHTEKSLSHSPGK
light: SYELTQPPSVSVAPGQTARISCSGDSLGSYFVHWYQQKPGQAPVLVIYDDSNRPSGIPERFSGSNSGNTATLTISGTQAEDEADYYCSAFTHNSDVFGGGTKLTVLQPKSSPSVTLFPPSSEELETNKATLVCTITDFYPGVVTVDWFTKVDGTPVTQGMETTQPSKQSNNKYMASSYLTLTARAWERHSSYSCQVTHEGHTVEFTKSLSRADCS
not listed: [1] | [2] | [3] | [4] | [5] | [6] | [7] | [8]
binds: all other assays above
